Results are given in words; binding and its absence hold for the method and conditions named. Binding seen in cells or lysates may run through a third protein. Here binding means that the protein was enriched with, or labelled near, the bait; the list need not be complete.
Molecular target: C-terminal FLAG-tagged GTPBP8 (human) (UniProt Q8N3Z3)
Experiment: affinity purification with mass spectrometry; FLAG-IP (Sigma-Aldrich kit) of GTPBP8::FLAG from mitochondrial lysate of HEK293 induced with 50 ng/ml doxycycline for 48 h; buffers with 5 mM MgCl2; elution with 3X FLAG peptides; LFQ mass spectrometry against mtLuc::FLAG control; thresholds log2FC > 3 and adj. p-value < 0.05

The chains behind the UniProt entries cited, without tags or fusion partners. Where a name states a change or a piece, a line headed by the entry shows the natural chain unless it says otherwise. Residues count along the entry.
UniProt Q8N3Z3: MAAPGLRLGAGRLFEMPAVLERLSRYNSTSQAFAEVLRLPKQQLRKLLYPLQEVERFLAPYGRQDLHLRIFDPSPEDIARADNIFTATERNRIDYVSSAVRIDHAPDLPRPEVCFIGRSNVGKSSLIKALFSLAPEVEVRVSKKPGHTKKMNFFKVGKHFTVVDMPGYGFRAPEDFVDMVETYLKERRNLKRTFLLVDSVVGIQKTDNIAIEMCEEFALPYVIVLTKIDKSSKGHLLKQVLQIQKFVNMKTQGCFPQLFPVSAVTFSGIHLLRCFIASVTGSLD
UniProt A4D1E9: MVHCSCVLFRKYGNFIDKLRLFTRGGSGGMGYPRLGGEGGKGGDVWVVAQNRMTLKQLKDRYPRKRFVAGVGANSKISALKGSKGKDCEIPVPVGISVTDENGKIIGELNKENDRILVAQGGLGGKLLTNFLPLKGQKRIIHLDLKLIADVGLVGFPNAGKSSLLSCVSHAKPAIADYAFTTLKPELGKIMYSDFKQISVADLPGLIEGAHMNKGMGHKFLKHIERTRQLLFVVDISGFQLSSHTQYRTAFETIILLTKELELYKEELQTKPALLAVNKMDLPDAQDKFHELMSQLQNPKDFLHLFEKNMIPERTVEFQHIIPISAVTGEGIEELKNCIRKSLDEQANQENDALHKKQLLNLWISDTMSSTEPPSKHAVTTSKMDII
UniProt Q8WVM0, residues 28-346: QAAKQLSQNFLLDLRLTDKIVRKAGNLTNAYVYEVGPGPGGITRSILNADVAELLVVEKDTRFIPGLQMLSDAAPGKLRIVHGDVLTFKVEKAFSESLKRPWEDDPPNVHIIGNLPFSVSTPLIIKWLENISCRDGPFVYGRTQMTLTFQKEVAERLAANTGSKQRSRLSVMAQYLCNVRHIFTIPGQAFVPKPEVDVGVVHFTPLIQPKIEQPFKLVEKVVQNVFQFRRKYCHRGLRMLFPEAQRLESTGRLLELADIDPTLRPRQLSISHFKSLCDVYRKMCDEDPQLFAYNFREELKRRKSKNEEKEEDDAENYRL

| Molecule | binding |
| --- | --- |
| GTPBP10 (from UniProt A4D1E9 1-387) | binds |
| MTERF3 (protein, UniProt Q96E29 69-417) SSQSTSSSSQENNSAQSSLLPSMNEQSQKTQNISSFDSELFLEELDELPPLSPMQPISEEEAIQIIADPPLPPASFTLRDYVDHSETLQKLVLLGVDLSKIEKHPEAANLLLRLDFEKDIKQMLLFLKDVGIEDNQLGAFLTKNHAIFSEDLENLKTRVAYLHSKNFSKADVAQMVRKAPFLLNFSVERLDNRLGFFQKELELSVKKTRDLVVRLPRLLTGSLEPVKENMKVYRLELGFKHNEIQHMITRIPKMLTANKMKLTETFDFVHNVMSIPHHIIVKFPQVFNTRLFKVKERHLFLTYLGRAQYDPAKPNYISLDKLVSIPDEIFCEEIAKASVQDFEKFLKTL | binds |
| ERAL1 (protein, UniProt O75616 44-437) VSCVAGSAFSGPRLASASRSNGQGSALDHFLGFSQPDSSVTPCVPAVSMNRDEQDVLLVHHPDMPENSRVLRVVLLGAPNAGKSTLSNQLLGRKVFPVSRKVHTTRCQALGVITEKETQVILLDTPGIISPGKQKRHHLELSLLEDPWKSMESADLVVVLVDVSDKWTRNQLSPQLLRCLTKYSQIPSVLVMNKVDCLKQKSVLLELTAALTEGVVNGKKLKMRQAFHSHPGTHCPSPAVKDPNTQSVGNPQRIGWPHFKEIFMLSALSQEDVKTLKQYLLTQAQPGPWEYHSAVLTSQTPEEICANIIREKLLEHLPQEVPYNVQQKTAVWEEGPGGELVIQQKLLVPKESYVKLLIGPKGHVISQIAQEAGHDLMDIFLCDVDIRLSVKLLK | binds |
| DHX30 (protein, UniProt Q7L2E3 1-1194) MFSLDSFRKDRAQHRQRQCKLPPPRLPPMCVNPTPGGTISRASRDLLKEFPQPKNLLNSVIGRALGISHAKDKLVYVHTNGPKKKKVTLHIKWPKSVEVEGYGSKKIDAERQAAAAACQLFKGWGLLGPRNELFDAAKYRVLADRFGSPADSWWRPEPTMPPTSWRQLNPESIRPGGPGGLSRSLGREEEEDEEEELEEGTIDVTDFLSMTQQDSHAPLRDSRGSSFEMTDDDSAIRALTQFPLPKNLLAKVIQIATSSSTAKNLMQFHTVGTKTKLSTLTLLWPCPMTFVAKGRRKAEAENKAAALACKKLKSLGLVDRNNEPLTHAMYNLASLRELGETQRRPCTIQVPEPILRKIETFLNHYPVESSWIAPELRLQSDDILPLGKDSGPLSDPITGKPYVPLLEAEEVRLSQSLLELWRRRGPVWQEAPQLPVDPHRDTILNAIEQHPVVVISGDTGCGKTTRIPQLLLERYVTEGRGARCNVIITQPRRISAVSVAQRVSHELGPSLRRNVGFQVRLESKPPSRGGALLFCTVGILLRKLQSNPSLEGVSHVIVDEVHERDVNTDFLLILLKGLQRLNPALRLVLMSATGDNERFSRYFGGCPVIKVPGFMYPVKEHYLEDILAKLGKHQYLHRHRHHESEDECALDLDLVTDLVLHIDARGEPGGILCFLPGWQEIKGVQQRLQEALGMHESKYLILPVHSNIPMMDQKAIFQQPPVGVRKIVLATNIAETSITINDIVHVVDSGLHKEERYDLKTKVSCLETVWVSRANVIQRRGRAGRCQSGFAYHLFPRSRLEKMVPFQVPEILRTPLENLVLQAKIHMPEKTAVEFLSKAVDSPNIKAVDEAVILLQEIGVLDQREYLTTLGQRLAHISTDPRLAKAIVLAAIFRCLHPLLVVVSCLTRDPFSSSLQNRAEVDKVKALLSHDSGSDHLAFVRAVAGWEEVLRWQDRSSRENYLEENLLYAPSLRFIHGLIKQFSENIYEAFLVGKPSDCTLASAQCNEYSEEEELVKGVLMAGLYPNLIQVRQGKVTRQGKFKPNSVTYRTKSGNILLHKSTINREATRLRSRWLTYFMAVKSNGSVFVRDSSQVHPLAVLLLTDGDVHIRDDGRRATISLSDSDLLRLEGDSRTVRLLKELRRALGRMVERSLRSELAALPPSVQEEHGQLLALLAELLRGPCGSFDVRKTADD | binds |
| MTERF1 (protein, UniProt Q99551 58-399) FGVKCHNTDSEPLKNEDLLKNLLTMGVDIDMARKRQPGVFHRMITNEQDLKMFLLSKGASKEVIASIISRYPRAITRTPENLSKRWDLWRKIVTSDLEIVNILERSPESFFRSNNNLNLENNIKFLYSVGLTRKCLCRLLTNAPRTFSNSLDLNKQMVEFLQAAGLSLGHNDPADFVRKIIFKNPFILIQSTKRVKANIEFLRSTFNLNSEELLVLICGPGAEILDLSNDYARRSYANIKEKLFSLGCTEEEVQKFVLSYPDVIFLAEKKFNDKIDCLMEENISISQIIENPRVLDSSISTLKSRIKELVNAGCNLSTLNITLLSWSKKRYEAKLKKLSRFA | binds |
| MRM3 (protein, UniProt Q9HC36 41-420) VFPSGEVVEQKRAPGKQPRKAPSEASAQEQREKQPLEESASRAPSTWEESGLRYDKAYPGDRRLSSVMTIVKSRPFREKQGKILLEGRRLISDALKAGAVPKMFFFSRLEYLKELPVDKLKGVSLIKVKFEDIKDWSDLVTPQGIMGIFAKPDHVKMTYPKTQLQHSLPLLLICDNLRDPGNLGTILRSAAGAGCSKVLLTKGCVDAWEPKVLRAGMGAHFRMPIINNLEWETVPNYLPPDTRVYVADNCGLYAQAEMSNKASDHGWVCDQRVMKFHKYEEEEDVETGASQDWLPHVEVQSYDSDWTEAPAAVVIGGETYGVSLESLQLAESTGGKRLLIPVVPGVDSLNSAMAASILLFEGKRQLRGRAEDLSRDRSYH | binds |
| MRM1 (protein, UniProt Q6IN84 21-353) SHAARHGERPGGEELSRLLLDDLVPTSRLELLFGMTPCLLALQAARRSVARLLLQAGKAGLQGKRAELLRMAEARDIPVLRPRRQKLDTMCRYQVHQGVCMEVSPLRPRPWREAGEASPGDDPQQLWLVLDGIQDPRNFGAVLRSAHFLGVDKVITSRRNSCPLTPVVSKSSAGAMEVMDVFSTDDLTGFLQTKAQQGWLVAGTVGCPSTEDPQSSEIPIMSCLEFLWERPTLLVLGNEGSGLSQEVQASCQLLLTILPRRQLPPGLESLNVSVAAGILLHSICSQRKGFPTEGERRQLLQDPQEPSARSEGLSMAQHPGLSSGPEKERQNEG | binds |
| METTL17 (protein, UniProt Q9H7H0 28-456) AALVPGVTQVDNKSGFLQKRPHRQHPGILKLPHVRLPQALANGAQLLLLGSAGPTMENQVQTLTSYLWSRHLPVEPEELQRRARHLEKKFLENPDLSQTEEKLRGAVLHALRKTTYHWQELSYTEGLSLVYMAARLDGGFAAVSRAFHEIRARNPAFQPQTLMDFGSGTGSVTWAAHSIWGQSLREYMCVDRSAAMLVLAEKLLKGGSESGEPYIPGVFFRQFLPVSPKVQFDVVVSAFSLSELPSKADRTEVVQTLWRKTGHFLVLVENGTKAGHSLLMDARDLVLKGKEKSPLDPRPGFVFAPCPHELPCPQLTNLACSFSQAYHPIPFSWNKKPKEEKFSMVILARGSPEEAHRWPRITQPVLKRPRHVHCHLCCPDGHMQHAVLTARRHGRDLYRCARVSSWGDLLPVLTPSAFPPSTAQDPSES | binds |

The next lines start with the values.

| binding | Molecule |
| --- | --- |
| binds | TFB1M (from UniProt Q8WVM0 28-346) |
| binds | MTPAP (protein, UniProt Q9NVV4 38-582) KDLRRDEQPSGSVETGFEDKIPKRRFSEMQNERREQAQRTVLIHCPEKISENKFLKYLSQFGPINNHFFYESFGLYAVVEFCQKESIGSLQNGTHTPSTAMETAIPFRSRFFNLKLKNQTSERSRVRSSNQLPRSNKQLFELLCYAESIDDQLNTLLKEFQLTEENTKLRYLTCSLIEDMAAAYFPDCIVRPFGSSVNTFGKLGCDLDMFLDLDETRNLSAHKISGNFLMEFQVKNVPSERIATQKILSVLGECLDHFGPGCVGVQKILNARCPLVRFSHQASGFQCDLTTNNRIALTSSELLYIYGALDSRVRALVFSVRCWARAHSLTSSIPGAWITNFSLTMMVIFFLQRRSPPILPTLDSLKTLADAEDKCVIEGNNCTFVRDLSRIKPSQNTETLELLLKEFFEYFGNFAFDKNSINIRQGREQNKPDSSPLYIQNPFETSLNISKNVSQSQLQKFVDLARESAWILQQEDTDRPSISSNRPWGLVSLLLPSAPNRKSFTKKKSNKFAIETVKNLLESLKGNRTENFTKTSGKRTISTQT |
| binds | NOA1 (protein, UniProt Q8NC60 1-698) MLPARLPFRLLSLFLRGSAPTAARHGLREPLLERRCAAASSFQHSSSLGRELPYDPVDTEGFGEGGDMQERFLFPEYILDPEPQPTREKQLQELQQQQEEEERQRQQRREERRQQNLRARSREHPVVGHPDPALPPSGVNCSGCGAELHCQDAGVPGYLPREKFLRTAEADGGLARTVCQRCWLLSHHRRALRLQVSREQYLELVSAALRRPGPSLVLYMVDLLDLPDALLPDLPALVGPKQLIVLGNKVDLLPQDAPGYRQRLRERLWEDCARAGLLLAPGHQGPQRPVKDEPQDGENPNPPNWSRTVVRDVRLISAKTGYGVEELISALQRSWRYRGDVYLVGATNAGKSTLFNTLLESDYCTAKGSEAIDRATISPWPGTTLNLLKFPICNPTPYRMFKRHQRLKKDSTQAEEDLSEQEQNQLNVLKKHGYVVGRVGRTFLYSEEQKDNIPFEFDADSLAFDMENDPVMGTHKSTKQVELTAQDVKDAHWFYDTPGITKENCILNLLTEKEVNIVLPTQSIVPRTFVLKPGMVLFLGAIGRIDFLQGNQSAWFTVVASNILPVHITSLDRADALYQKHAGHTLLQIPMGGKERMAGFPPLVAEDIMLKEGLGASEAVADIKFSSAGWVSVTPNFKDRLHLRGYTPEGTVLTVRPPLLPYIVNIKGQRIKKSVAYKTKKPPSLMYNVRKKKGKINV |
| binds | TRMT10C (protein, UniProt Q7L0Y3 40-403) MSSKIPAVTYPKNESTPPSEELELDKWKTTMKSSVQEECVSTISSSKDEDPLAATREFIEMWRLLGREVPEHITEEELKTLMECVSNTAKKKYLKYLYTKEKVKKARQIKKEMKAAAREEAKNIKLLETTEEDKQKNFLFLRLWDRNMDIAMGWKGAQAMQFGQPLVFDMAYENYMKRKELQNTVSQLLESEGWNRRNVDPFHIYFCNLKIDGALHRELVKRYQEKWDKLLLTSTEKSHVDLFPKDSIIYLTADSPNVMTTFRHDKVYVIGSFVDKSMQPGTSLAKAKRLNLATECLPLDKYLQWEIGNKNLTLDQMIRILLCLKNNGNWQEALQFVPKRKHTGFLEISQHSQEFINRLKKAKT |
| binds | RPSUD4 (protein, UniProt Q96CM3 16-377) NGQGCGSLFTLVSKPFCAAAAASTAINAQRLAEKLRAQKREQDTKKEPVSTNAVQRRVQEIVRFTRQLQRVHPNVLAKALTRGILHQDKNLVVINKPYGLPVHGGPGVQLCITDVLPILAKMLHGHKAEPLHLCHRLDKETTGVMVLAWDKDMAHQVQELFRTRQVVKKYWAITVHVPMPSAGVVDIPIVEKEAQGQQQHHKMTLSPSYRMDDGKMVKVRRSRNAQVAVTQYQVLSSTLSSALVELQPITGIKHQLRVHLSFGLDCPILGDHKYSDWNRLAPQKLSVGTLKKLGLEQSKARYIPLHLHARQLILPALGSGKEELNLVCKLPRFFVHSLHRLRLEMPNEDQNENNEAKCLGAQ |

Reference: PMC11229512
